# The list shows a part of the results.
# Molecular target: T1, OsSMF1 (Oryza sativa, UniProt Q6ZLB0 1-436)
# T1 sequence: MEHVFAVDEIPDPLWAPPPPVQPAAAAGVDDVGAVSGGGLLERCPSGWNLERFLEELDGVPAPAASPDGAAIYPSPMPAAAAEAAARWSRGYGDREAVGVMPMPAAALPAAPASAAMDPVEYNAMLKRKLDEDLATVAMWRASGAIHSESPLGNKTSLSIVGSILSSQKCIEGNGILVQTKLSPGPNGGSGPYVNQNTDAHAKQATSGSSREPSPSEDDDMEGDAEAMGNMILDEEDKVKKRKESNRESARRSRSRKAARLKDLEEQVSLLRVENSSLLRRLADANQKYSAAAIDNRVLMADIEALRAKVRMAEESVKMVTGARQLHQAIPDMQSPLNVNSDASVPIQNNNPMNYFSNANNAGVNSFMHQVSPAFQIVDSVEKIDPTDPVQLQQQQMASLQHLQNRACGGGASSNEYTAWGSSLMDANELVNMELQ
# Assay: protein-binding microarray (RPBM); PBS, 2% BSA, 51.3 ng/ul salmon testes DNA, 50 uM zinc acetate, 200 nM TF, 25 C, 1 h; high values mean tight binding
# Conditions: protein: recombinant; tags: N-terminal polyhistidine and DsRed monomer fusion (pET32a); chain copies: 2; label: CyDye5-dUTP incorporated in the synthesized complementary strand; 3' TTTTT single-stranded linker to array surface; dsDNA, one strand shown
# In short: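 Ni–NTA purification followed expression in E. coli BL21-CodonPlus of transcription factors fused N-terminally to a polyhistidine tag and DsRed. At 200 nM in PBS with 2% BSA, salmon testes DNA and 50 µM zinc acetate, the protein was incubated for 1 h at 25 °C with a custom Agilent array that had been primer-extended with Cy5-dUTP and blocked with 2% BSA. After washing, the array was read on an Axon 4000B scanner. The binding signal is per-feature fluorescence intensity in arbitrary units.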
row,Sequence,binding signal
1,CTCACACTTCACACGCCCCACTCAGCTCAGCTGCATGCTGCGGAGTCACCTAGTGCAG,3410 fluorescence intensity (a.u.)
2,TTCCGCGCTGTAGCACGTGGAATAGCACTACCGTCAAAATCGGAGTCACCTAGTGCAG,3820 fluorescence intensity (a.u.)
3,TTGATCAAATTGCCACGCAGACACCACGTCAGCCAAAACCCGGAGTCACCTAGTGCAG,21100 fluorescence intensity (a.u.)
4,AGTGCATTGGAGTGACACGTTTGAACTTTGAAGCATCATGCGGAGTCACCTAGTGCAG,3600 fluorescence intensity (a.u.)
5,AGAGCAAAGGCCGGAGTCAGATGCGCGCGCGATTCCGTGACGGAGTCACCTAGTGCAG,18800 fluorescence intensity (a.u.)
6,CCACCTCCTCGCCGCCGCCGCCGGCCACCGCCGCCGCCGCCGGAGTCACCTAGTGCAG,3740 fluorescence intensity (a.u.)
7,CTTATCAACTCCGGCCCTTGTGAGCTGGTCGACGCGTGGTCGGAGTCACCTAGTGCAG,3870 fluorescence intensity (a.u.)
8,GCGACGCCACGCCACGCCACCACTCGCCGCAGCGCCGCGCCGGAGTCACCTAGTGCAG,6890 fluorescence intensity (a.u.)
9,ACCCTGCAGCGAGAGAGAGCCAGCCGCTCAGCTCAGCTCCCGGAGTCACCTAGTGCAG,12200 fluorescence intensity (a.u.)
10,CGCCATAGTTAAGGGACGATGACGCAGCTTTTCTTGGAGTCGGAGTCACCTAGTGCAG,11000 fluorescence intensity (a.u.)
11,TACTACAGACGATCAGAATATGAGTCAGTTGCATCCATAACGGAGTCACCTAGTGCAG,3390 fluorescence intensity (a.u.)
12,TACTTGTAGACCTGAGCATATCCACGTCGATTTACTTCAACGGAGTCACCTAGTGCAG,5810 fluorescence intensity (a.u.)
13,GCGAGTTCTTGGTCGATCGGTCTCCATTACTCTGCGTCAGCGGAGTCACCTAGTGCAG,4620 fluorescence intensity (a.u.)
14,CCCTTCCTCAGCATGGCTGCTTCTTATGTGGGCCTTCCGTCGGAGTCACCTAGTGCAG,3700 fluorescence intensity (a.u.)
15,CCGCATAACAATAGTTTACACGAGAACGTGAATCATACGACGGAGTCACCTAGTGCAG,3890 fluorescence intensity (a.u.)
16,TATGTATTAATGTAGCTGCCACGTACCTTCTCCATCATCCCGGAGTCACCTAGTGCAG,9400 fluorescence intensity (a.u.)
17,CCATCTAGTATATAGTGGTGATGATGATGGTGGTACCAAACGGAGTCACCTAGTGCAG,5420 fluorescence intensity (a.u.)
18,TAGGCGAAGTATCCGTCAACAGCAAGGCGCCCATGGTAATCGGAGTCACCTAGTGCAG,3340 fluorescence intensity (a.u.)
19,TTGACATGCCTCTTTCTGTACACCTGTCTTTTACTGGCGTCGGAGTCACCTAGTGCAG,5120 fluorescence intensity (a.u.)
20,CTCTCTGCGACGCTACGCTGCCCCAAGCAGCGGAAACAATCGGAGTCACCTAGTGCAG,29100 fluorescence intensity (a.u.)
21,GCGGTCTCCTCTCCTGTCGTGCGTGCGTGCCGGAGACGACCGGAGTCACCTAGTGCAG,3920 fluorescence intensity (a.u.)

row,Sequence,binding signal
1,CAATGGATCGAGTACTTATCTACTGATCTAGTCATCAATCCGGAGTCACCTAGTGCAG,5560 fluorescence intensity (a.u.)
2,CCTGCGCCGCCGTGACAGCCGCGATGGTCGCCGGCGGAGACGGAGTCACCTAGTGCAG,3340 fluorescence intensity (a.u.)
3,ATCTCTATTATTATAGTATTTTGGTACGTCATCCGTGTATCGGAGTCACCTAGTGCAG,7580 fluorescence intensity (a.u.)
4,GCAAATATGTAAATTACACCTGGAGACATAGGTTGTGTTTCGGAGTCACCTAGTGCAG,4940 fluorescence intensity (a.u.)
5,AAATCTCGCGTAGACGACGTCGTAGCCGTGGCCACCGCTACGGAGTCACCTAGTGCAG,3480 fluorescence intensity (a.u.)
6,AGCGGAGGTGGACCCTTCCGTTCACTTCGTCCGCAAGTCGCGGAGTCACCTAGTGCAG,25800 fluorescence intensity (a.u.)
7,TAGTAGTAATGTTGCTTCTGGTAATAGTTGTGTGTGCTGTCGGAGTCACCTAGTGCAG,3320 fluorescence intensity (a.u.)
8,CATCTTCAGAATAAAAGAACACCACCGAAGAGCATACTACCGGAGTCACCTAGTGCAG,30200 fluorescence intensity (a.u.)
9,CAGTTCTTTTGTTTCTTTGACATCATTAGCCTTACATTTGCGGAGTCACCTAGTGCAG,4050 fluorescence intensity (a.u.)
10,GCGAGAAAGACGAGGTGGTGGTGGCGGCGGCGGTTGTGATCGGAGTCACCTAGTGCAG,3950 fluorescence intensity (a.u.)
11,ACGAGACGCGTGCGTCACAGCAGCTCACGATTCCGTCGCGCGGAGTCACCTAGTGCAG,3710 fluorescence intensity (a.u.)
12,GATCGTGGAATTAATTCCACCTTAGTTGTTATGGGCGGGTCGGAGTCACCTAGTGCAG,4260 fluorescence intensity (a.u.)
13,AGCGAGTAACGTGGCATATTCACCATAGATGTCCACGACACGGAGTCACCTAGTGCAG,7260 ± 427 fluorescence intensity (a.u.)
14,AACGCATTCCAGCTCATCCGTCTCCTGACCTTTGCTTGTCCGGAGTCACCTAGTGCAG,5830 fluorescence intensity (a.u.)
15,TATCATCAGGCTAATATGCCGTGACAACACTTTGTGTTTCCGGAGTCACCTAGTGCAG,3710 fluorescence intensity (a.u.)
16,CTCACGAGCCAAACGAGCCAATGATAGCCCACGTCACAAGCGGAGTCACCTAGTGCAG,13500 fluorescence intensity (a.u.)
17,ATAGGCTGTCAGGCTGATGGCTACACTTGAACATTACCTTCGGAGTCACCTAGTGCAG,27800 fluorescence intensity (a.u.)
18,CCAGCGTCGCCGGCCCGCCACGTGTACGGCTCTGATTGGACGGAGTCACCTAGTGCAG,12700 fluorescence intensity (a.u.)
19,TCGTCTTCTCCACATCAATCACCAGCTATCTCGATCGTGACGGAGTCACCTAGTGCAG,3510 fluorescence intensity (a.u.)
20,TAAATTGACACATCACCTCTAGGATCCTACGTGGCGTTGACGGAGTCACCTAGTGCAG,14400 fluorescence intensity (a.u.)
21,CCCGCGCCTGCATCGCCACGTGGCATCCCGCCGCCACGGGCGGAGTCACCTAGTGCAG,19500 fluorescence intensity (a.u.)

# Given with bars between the fields: part of the list above
row | Sequence | binding signal
17 | ATAGGCTGTCAGGCTGATGGCTACACTTGAACATTACCTTCGGAGTCACCTAGTGCAG | 27800 fluorescence intensity (a.u.)
18 | CCAGCGTCGCCGGCCCGCCACGTGTACGGCTCTGATTGGACGGAGTCACCTAGTGCAG | 12700 fluorescence intensity (a.u.)

# — paper PMC7819943, “Rice protein-binding microarrays: a tool to detect cis-acting elements near promoter regions in rice”
